# Results from PMC10218176.
# Chains of the proteins cited; added tags and fusions are not shown.
# UniProt Q15760: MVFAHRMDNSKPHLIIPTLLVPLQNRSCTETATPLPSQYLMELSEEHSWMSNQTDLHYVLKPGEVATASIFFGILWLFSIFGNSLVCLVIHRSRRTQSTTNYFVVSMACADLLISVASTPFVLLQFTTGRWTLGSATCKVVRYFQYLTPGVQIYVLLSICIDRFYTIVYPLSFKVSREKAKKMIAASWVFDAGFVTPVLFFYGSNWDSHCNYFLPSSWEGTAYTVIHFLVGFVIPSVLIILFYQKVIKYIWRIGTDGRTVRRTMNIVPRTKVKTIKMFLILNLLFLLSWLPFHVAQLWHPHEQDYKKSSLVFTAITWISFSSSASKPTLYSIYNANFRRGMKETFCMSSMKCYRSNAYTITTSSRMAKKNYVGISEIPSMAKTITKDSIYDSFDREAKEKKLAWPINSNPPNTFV
# UniProt P60842: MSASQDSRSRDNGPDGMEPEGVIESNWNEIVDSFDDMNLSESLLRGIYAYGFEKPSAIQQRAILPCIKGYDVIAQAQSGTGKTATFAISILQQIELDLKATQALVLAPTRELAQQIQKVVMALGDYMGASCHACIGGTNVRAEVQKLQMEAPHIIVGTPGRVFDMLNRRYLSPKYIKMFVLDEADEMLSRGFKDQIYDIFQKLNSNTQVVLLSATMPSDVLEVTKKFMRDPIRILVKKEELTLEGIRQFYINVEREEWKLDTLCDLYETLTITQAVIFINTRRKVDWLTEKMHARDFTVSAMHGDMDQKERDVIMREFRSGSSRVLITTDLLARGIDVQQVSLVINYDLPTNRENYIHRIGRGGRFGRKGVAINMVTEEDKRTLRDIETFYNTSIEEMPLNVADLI
# UniProt Q14676: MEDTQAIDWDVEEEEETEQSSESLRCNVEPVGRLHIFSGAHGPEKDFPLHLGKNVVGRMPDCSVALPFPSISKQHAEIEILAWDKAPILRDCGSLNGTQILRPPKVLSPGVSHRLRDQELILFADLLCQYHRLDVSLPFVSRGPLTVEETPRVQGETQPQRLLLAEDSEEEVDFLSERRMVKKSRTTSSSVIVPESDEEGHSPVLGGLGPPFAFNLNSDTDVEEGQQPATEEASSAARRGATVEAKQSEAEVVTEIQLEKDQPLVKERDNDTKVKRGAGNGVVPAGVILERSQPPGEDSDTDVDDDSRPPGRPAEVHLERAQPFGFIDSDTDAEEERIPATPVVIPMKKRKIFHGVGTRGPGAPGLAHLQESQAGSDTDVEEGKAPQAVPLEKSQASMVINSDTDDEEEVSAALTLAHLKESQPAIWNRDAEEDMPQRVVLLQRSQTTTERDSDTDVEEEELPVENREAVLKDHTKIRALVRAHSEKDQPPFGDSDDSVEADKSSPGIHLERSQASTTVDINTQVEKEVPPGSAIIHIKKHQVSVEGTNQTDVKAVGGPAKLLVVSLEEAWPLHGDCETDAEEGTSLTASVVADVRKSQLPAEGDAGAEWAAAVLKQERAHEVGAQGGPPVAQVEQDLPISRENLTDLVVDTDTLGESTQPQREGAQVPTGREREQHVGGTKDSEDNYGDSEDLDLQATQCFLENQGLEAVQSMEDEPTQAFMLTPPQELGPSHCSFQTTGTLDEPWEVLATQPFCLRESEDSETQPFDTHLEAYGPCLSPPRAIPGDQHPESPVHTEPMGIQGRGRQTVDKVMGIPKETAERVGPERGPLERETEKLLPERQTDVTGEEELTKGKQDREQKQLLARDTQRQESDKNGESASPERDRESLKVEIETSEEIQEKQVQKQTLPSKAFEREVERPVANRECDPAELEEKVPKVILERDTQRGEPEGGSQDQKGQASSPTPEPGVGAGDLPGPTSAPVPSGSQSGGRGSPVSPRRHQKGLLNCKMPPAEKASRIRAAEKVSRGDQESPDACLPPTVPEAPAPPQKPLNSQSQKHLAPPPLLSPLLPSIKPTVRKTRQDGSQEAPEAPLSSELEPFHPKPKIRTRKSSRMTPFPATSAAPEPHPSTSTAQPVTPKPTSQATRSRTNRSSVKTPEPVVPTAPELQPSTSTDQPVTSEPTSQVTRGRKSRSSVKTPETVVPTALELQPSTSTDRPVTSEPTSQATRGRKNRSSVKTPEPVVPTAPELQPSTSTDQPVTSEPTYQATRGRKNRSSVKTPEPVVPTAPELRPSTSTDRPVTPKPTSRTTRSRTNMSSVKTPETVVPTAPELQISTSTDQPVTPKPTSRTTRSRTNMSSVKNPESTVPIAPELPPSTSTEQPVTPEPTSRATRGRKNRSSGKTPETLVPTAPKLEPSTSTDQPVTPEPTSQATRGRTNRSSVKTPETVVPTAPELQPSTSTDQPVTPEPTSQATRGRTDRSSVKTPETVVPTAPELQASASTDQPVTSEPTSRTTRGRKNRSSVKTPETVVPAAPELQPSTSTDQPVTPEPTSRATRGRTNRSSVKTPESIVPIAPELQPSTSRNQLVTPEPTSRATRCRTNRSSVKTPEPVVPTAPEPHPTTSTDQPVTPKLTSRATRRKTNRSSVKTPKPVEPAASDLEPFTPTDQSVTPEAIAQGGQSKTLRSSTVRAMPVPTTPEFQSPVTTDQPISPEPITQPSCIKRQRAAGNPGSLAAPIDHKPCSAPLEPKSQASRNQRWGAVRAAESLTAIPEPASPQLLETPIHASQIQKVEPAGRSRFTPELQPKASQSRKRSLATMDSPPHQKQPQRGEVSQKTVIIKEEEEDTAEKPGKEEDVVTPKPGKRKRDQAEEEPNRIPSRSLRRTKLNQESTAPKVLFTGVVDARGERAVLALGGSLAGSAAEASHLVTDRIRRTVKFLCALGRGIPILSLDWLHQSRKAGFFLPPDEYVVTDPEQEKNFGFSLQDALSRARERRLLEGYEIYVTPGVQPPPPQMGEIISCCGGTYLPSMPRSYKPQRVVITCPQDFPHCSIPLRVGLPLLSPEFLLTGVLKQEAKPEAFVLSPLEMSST
# These are yes or no findings as the source states them, for the method shown. Binding seen in cells or lysates may run through a third protein. Some binding calls cover weakened binding; strength is not graded here.
# B1: CBR1 (carbonyl reductase 1) (enzyme, UniProt P16152 1-277)
# chain: MSSGIHVALVTGGNKGIGLAIVRDLCRLFSGDVVLTARDVTRGQAAVQQLQAEGLSPRFHQLDIDDLQSIRALRDFLRKEYGGLDVLVNNAGIAFKVADPTPFHIQAEVTMKTNFFGTRDVCTELLPLIKPQGRVVNVSSIMSVRALKSCSPELQQKFRSETITEEELVGLMNKFVEDTKKGVHQKEGWPSSAYGVTKIGVTVLSRIHARKLSEQRKGDKILLNACCPGWVRTDMAGPKATKSPEEGAETPVYLALLPPDAEGPHGQFVSEKRVEQW
# Molecular target: hemagglutinin (3xHA)-N terminally tagged human GPR19 receptor (human) (UniProt Q15760)
# Assay: co-IP; anti-HA immunoprecipitation of HA-tagged GPR19 from transfected HEK293 cells in low-detergent conditions, compared to mock transfected cells; blots of MDC1, PHB, CBR1, EIF4A1; control conditions and cells treated with Acesulfame K, low glucose or hydrogen peroxide
row,Molecule,binding
1,EIF4A1 (from UniProt P60842 1-406),binds
2,MDC1 (mediator of DNA damage checkpoint protein-1) (from UniProt Q14676 1-2089),binds
3,B1,binds
